Experimental data from article PMC8584931 (International Journal of Molecular Sciences, 2021).

Test system: HT-29 cells
Assay: cells
Conditions: Homo sapiens, HT-29, 48 h, read-out: HT-29 IV (intermediate value)
Experimental: Cell viability was evaluated by MTT assay.
It is necessary for this IV to have a method of comparison for the combination of experiments.
Human colorectal cancer HT-29 and prostate cancer PC-3 cell lines were obtained from the American Type Culture Collection (ATCC; Manassas, VA, USA) and maintained according to ATCC’s recommendations at 37 °C and 5% CO2 in appropriate medium supplemented with 10% foetal bovine serum, 100 U/mL penicillin G and 100 µg/mL streptomycin. Cells were maintained in the logarithmic growth phase at all times. The media were changed every 2 days and trypsinised with 0.25% trypsin–EDTA. A total of 100 µL of HT-29 cells (7500 cells/well) or PC-3 cells (5000 cells/well) were seeded in 96-well plates and allowed to adhere overnight before drug exposure. After 24 h, the cell culture media were replaced with 100 µL of drug-containing media. […]
The IV value was first determined for each drug alone in HT-29 and PC-3 cells. […] Both Drug A and Drug B concentrations were variable, and the combined effects of equipotent concentrations (fixed ratio) of the IV values for each drug were evaluated.
For the MTT protocol, after drug treatment, the cell medium was removed and 100 µL/well of MTT solution (0.5 mg/mL in PBS) was added. […] Absorbance was measured at 570 nm in an automated microplate reader (Tecan Infinite M200, Tecan Group Ltd., Männedorf, Switzerland). […]

**Q.** Which IC50 does the source give for Clc1ccccc1C(c1ccccc1)(c1ccccc1)n1ccnc1 [Clotrimazole, clotrimazole] here?
**A.** 21.6 µM
